Experiment [1] addresses GST Wash (wildtype) (Drosophila) (UniProt Q7JW27). As to the kind of experiment: pull-down.
Experiment [2] has as its target T1, Lamin B (Drosophila (endogenous in Kc167 cells)) (UniProt P08928).
T1 sequence: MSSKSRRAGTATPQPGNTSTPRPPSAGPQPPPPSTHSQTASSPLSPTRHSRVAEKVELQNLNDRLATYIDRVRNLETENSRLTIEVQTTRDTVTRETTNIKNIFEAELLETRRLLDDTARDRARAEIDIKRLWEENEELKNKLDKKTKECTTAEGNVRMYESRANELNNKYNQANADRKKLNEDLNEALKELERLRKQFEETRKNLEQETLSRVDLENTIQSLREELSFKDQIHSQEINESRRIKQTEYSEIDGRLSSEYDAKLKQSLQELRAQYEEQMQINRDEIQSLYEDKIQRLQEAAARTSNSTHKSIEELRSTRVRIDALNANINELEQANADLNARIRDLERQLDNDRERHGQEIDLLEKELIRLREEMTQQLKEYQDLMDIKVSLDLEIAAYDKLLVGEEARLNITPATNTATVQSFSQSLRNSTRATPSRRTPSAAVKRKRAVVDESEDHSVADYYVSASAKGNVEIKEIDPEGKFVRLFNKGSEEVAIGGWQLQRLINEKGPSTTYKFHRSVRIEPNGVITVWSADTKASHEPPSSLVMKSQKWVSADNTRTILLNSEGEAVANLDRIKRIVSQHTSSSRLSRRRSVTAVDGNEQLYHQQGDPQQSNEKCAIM
As to the kind of experiment: co-IP.

Sequences of proteins named here, by UniProt entry; tags and fusion partners are left off.
UniProt Q7JW27: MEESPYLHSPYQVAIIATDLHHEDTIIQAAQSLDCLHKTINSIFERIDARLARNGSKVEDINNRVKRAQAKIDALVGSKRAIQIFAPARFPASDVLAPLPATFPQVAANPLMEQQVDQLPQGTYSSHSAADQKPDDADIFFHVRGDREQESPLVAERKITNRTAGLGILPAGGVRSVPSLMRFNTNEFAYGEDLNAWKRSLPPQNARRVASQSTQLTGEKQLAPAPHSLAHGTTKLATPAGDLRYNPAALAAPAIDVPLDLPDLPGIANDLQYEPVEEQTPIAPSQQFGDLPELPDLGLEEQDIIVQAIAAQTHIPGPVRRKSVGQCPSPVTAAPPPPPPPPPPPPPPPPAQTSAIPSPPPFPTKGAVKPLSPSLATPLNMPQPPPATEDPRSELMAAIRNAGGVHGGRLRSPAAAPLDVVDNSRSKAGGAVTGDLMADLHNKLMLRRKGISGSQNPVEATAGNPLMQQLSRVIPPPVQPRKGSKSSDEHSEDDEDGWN

The target of experiment [3] is T2, Lamin C (Drosophila (endogenous in Kc167 cells)) (UniProt Q03427).
T2 sequence: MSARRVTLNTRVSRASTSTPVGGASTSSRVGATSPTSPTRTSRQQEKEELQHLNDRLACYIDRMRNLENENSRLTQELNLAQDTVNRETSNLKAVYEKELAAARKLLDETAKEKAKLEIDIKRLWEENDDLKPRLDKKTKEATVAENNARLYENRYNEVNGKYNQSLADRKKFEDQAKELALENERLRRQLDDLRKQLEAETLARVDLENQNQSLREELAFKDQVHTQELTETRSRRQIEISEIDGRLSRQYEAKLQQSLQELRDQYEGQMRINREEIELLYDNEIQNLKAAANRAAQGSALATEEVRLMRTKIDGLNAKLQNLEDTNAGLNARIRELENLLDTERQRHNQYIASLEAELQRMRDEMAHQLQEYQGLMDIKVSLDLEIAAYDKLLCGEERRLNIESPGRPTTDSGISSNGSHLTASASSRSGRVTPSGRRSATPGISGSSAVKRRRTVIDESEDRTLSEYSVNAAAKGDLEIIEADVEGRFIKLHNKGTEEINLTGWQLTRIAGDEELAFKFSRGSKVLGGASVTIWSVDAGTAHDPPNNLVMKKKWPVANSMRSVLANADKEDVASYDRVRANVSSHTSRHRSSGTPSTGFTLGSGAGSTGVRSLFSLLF
As to the kind of experiment: co-IP.

Experiment [4] deals with Wash (Drosophila (endogenous in Kc167 cells)) (UniProt Q7JW27). The experiment is described as follows: co-IP.
Experiment [5] addresses T3, CCDC53 (Drosophila (endogenous in Kc167 cells)) (UniProt Q9VLT8).
T3 sequence: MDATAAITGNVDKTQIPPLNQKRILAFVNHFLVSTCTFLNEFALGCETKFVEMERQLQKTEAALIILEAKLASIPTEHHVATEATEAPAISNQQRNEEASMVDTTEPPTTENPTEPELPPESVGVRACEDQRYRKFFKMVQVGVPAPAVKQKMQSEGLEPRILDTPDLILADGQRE
As to the kind of experiment: co-IP.

No constants are given. Whether binding was seen depends on the method and setting. Binding seen in cells or lysates may run through a third protein. Some entries that bind do so weakly or less than the wild type.

For the molecule “35S-labeled in vitro translated Wash (from UniProt Q7JW27 1-499)”, the binding entry in experiment [1] was “binds”.

As to “35S-labeled in vitro translated CCDC53 (from UniProt Q9VLT8 1-176)”, the binding result in experiment [1] is recorded as “binds”.

B1: CCDC53 (protein, UniProt Q9VLT8 1-176)
chain: T3 sequence
Regarding B1, the results for the binding entry in experiment [2], in experiment [3] and in experiment [4] were “no binding”, “no binding” and “binds”, respectively.

B2: Strumpellin (protein, UniProt Q9VUY8 1-1191)
chain: MSFLDDNNACGQNLLNIVSVGNSIIAEILRLKDYVPSIYRLDNKADKAKYGELILDFSYFKIAEDHERRIEQSPELTELDDEARAQLPLITRFYLAFQSIHHYASDLQQYIEELNTGYYIQQTLETVLQEEEGRQLLCESLYLFGVILLMVDFHIPGDVRERLLIAYYRYSGGDATPSGDESNIHDVCLLLRSTGYVHPSIAAKVLGLGGKQAGARAASLVVPRYPEAYFSRFRFDENFVDLVVARLRCDDIYNQLNLYPHPAHRSTALSTQAAMLYVCLYFCPQVLHSQGSQMREIVDKFFCDNWTISVYMGMTVNLVDAWLDFKAARSAIENVISPPAIKALCQQQKEQLGKITQKTQEIVREGVLNDNFVLEHANKIIHLMRQSNVLLRWFCLHTSREVFIFAHTATLTGQVQKCVLHELQFNRNTLYNLLLNCSQMELSVREFLAEIQQTKEERWTKSREEAMQRLNELSEAFAGSRPLSKIEQNPQLQQWFGEVAGRLQKLELSRPQKSGRLIIQVMQALDDVQEYHNLHSNMLVKQQLQETRDMLNQMAQLINLKEDIEIHIQMITDFSYAWHLLQFDFTPPMQEHIKRQPQAVIGIRAVFLKLASTLEVPLMRINQARSEDLVSVSNYYSTELANFLRRVLQIVPETMFSILAKIIYLLTNVIKEFPTKVEKERLKDYAQFEERAKVAQLTNSIAVFTKGILMMKTTLVGVIELDPKQLLEDGIRKELVNHLANAYNLGLIFTPEKGKTPVQLLQQKLQALAKTIEGYRRSFEYIEDYLRVQGLRILLEESQRIINYNVEKECNAFLRNKVQEFQSEHQSQIIPIPNFPPLLGDPSNNFIGRLAHEILRCTDPKQTIFLDLKSTWYEKKAPHQEVLAGSGFFEILREALAPAGMVGLERLYAHMLADELKRNLERLQRNLTSDRMWVDTLAALTRELEARDFPTPEVSKQPLKYYQAYTQRWLKVWPTLLDWVLCIGQKQLLRREIAGELSFSSKCDAKLLENTADTLNKALLLELSLSKDLCDEKGVVMLTELQETLLYTGNFEPLEQVFLITKNTHNMALFMFLFTIAHLGRMQHSTITDCLLPKSAKDNIDNVPFIVGLVTILQQFHKNVKMLYISYMSQYVVTVSEAQLLDKEILGPEVVTALHFLLAFIRIARLPLGVLEQRIPNIILSEYEYLSTLLK
In the case of B2, the binding result in experiment [5] is given as “binds”; in experiment [2] it was “no binding”; in experiment [3] it was “no binding”; in experiment [4], “binds”.

B3: 35S-labeled in vitro translated Lamin C (protein, UniProt Q03427 1-621)
chain: T2 sequence
modifications: 35S-labeled
For the molecule B3, the binding result in experiment [1] is “no binding”.

Values taken from paper doi:10.1101/2019.12.18.881763.
